Assay results: patent US7125986B2, “Penicillanic acid derivative compounds and methods of making” (Southern Methodist University Foundation for Research, priority 1997, dated 2006)
Where a name gives a salt, the structure may show the parent alone. Some of these results come from one statement about several compounds together.

By UniProt entry, the sequences of proteins in these tests, tags left out. Residues count along the entry.
UniProt P62593, 24-286 limits assumed: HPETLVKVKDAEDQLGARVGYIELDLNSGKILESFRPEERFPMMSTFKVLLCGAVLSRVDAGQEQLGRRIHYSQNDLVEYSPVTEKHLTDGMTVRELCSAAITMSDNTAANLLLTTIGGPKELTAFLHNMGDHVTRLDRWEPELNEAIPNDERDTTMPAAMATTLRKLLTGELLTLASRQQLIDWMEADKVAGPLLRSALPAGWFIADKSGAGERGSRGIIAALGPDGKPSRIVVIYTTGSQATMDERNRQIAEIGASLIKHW

Each compound was assayed against TEM-1 β-lactamase (Escherichia coli, UniProt P62593) (assay: β-lactamase inhibition, nitrocefin hydrolysis (TEM-1)). Settings: factor relative to compound 9.
Assay type: biochemical
Procedure: The IC50 value of each compound was determined as follows. Following a 10 minute incubation of a dilute solution of enzyme (2.56 nM) and inhibitor (<0.64 μM), a 50 μL aliquot of the incubation mixture was further diluted into 1 mL nitrocefin (a substrate) solution, and the rate of hydrolysis was measured during a 1 minute period by monitoring the absorbance of nitrocefin as a function of time.

Row | Compound | β-lactamase inhibiting activity greater than compound 9 by a factor, TEM-1
1 | CC(=O)OC[C@@]1(C)[C@H](C(=O)O)N2C(=O)/C(=C/C(=O)O)[C@H]2S1(=O)=O [Compound 8a, Disodium salt of 2β-(acetoxymethyl)-6-[(Z)-carboxymethylene]-penicillinic acid-1,1-dioxide] | ≥ 10
2 | CC1(COC(=O)CCl)C(C(=O)O)N2C(=O)C(=CC(=O)O)C2S1(=O)=O (stereo not drawn) [Compound 8b, Disodium salt of 2β-(chloroacetoxymethyl)-6-[(Z)-carboxymethylene]-penicillinate 1,1-dioxide] | ≥ 10
3 | Cn1nnnc1SCC(=O)OCC1(C)C(C(=O)O)N2C(=O)C(=CC(=O)O)C2S1(=O)=O (stereo not drawn) [Compound 8g, Disodium salt of 2β-[[(1-methyl-1H-tetrazol-5-yl)thio]acetoxymethyl]-6-[(Z)-carboxymethylene]penicillinate 1,1-dioxide] | ≥ 10
